Here are results for one molecule from paper doi:10.1101/2025.08.19.670962, “Structural basis for binding of RILPL1 to TMEM55B reveals a lysosomal platform for adaptor assembly through a conserved TBM motif” (bioRxiv, 2025).

By UniProt entry, the sequences of proteins in these tests, tags left out. Where a name states a change or a piece, a line headed by the entry shows the natural chain unless it says otherwise.
UniProt Q86T03: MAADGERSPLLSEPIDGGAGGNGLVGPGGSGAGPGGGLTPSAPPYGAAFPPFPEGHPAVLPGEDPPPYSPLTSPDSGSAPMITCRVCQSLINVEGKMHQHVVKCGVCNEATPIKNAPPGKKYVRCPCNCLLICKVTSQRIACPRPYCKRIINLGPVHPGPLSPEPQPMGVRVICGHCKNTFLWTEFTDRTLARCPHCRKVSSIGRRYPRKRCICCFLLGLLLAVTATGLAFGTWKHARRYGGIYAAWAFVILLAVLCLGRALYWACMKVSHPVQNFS

Results are given in words; binding and its absence hold for the method and conditions named. Binding calls can cover weak binding; strength is not graded here.

The assay has as its target TMEM55B_(80-166)2CysMUT (UniProt Q86T03). Put plainly: crystal structure; TMEM55B_(80-166)2CysMUT with RILPL1 391-403 peptide; 0.05M KSCN, 0.1M Tris pH 8.5, 18% PEG5000/MME; 1.55 Å; both purified.

Regarding GYTEQGQEALQHL [RILPL1 391-403 peptide], the binding entry was “binds”.
